# Experimental data from the supplement of paper PMC10338343.
# ± gives the standard deviation. This is a selection; strong and weak results do not stand in their true shares. Many entries were measured with a wide error.
# Tested on: MIWI (PIWIL1) piRISC loaded with piRNA #2 (30 nt)
# Test: pre-steady-state target cleavage rate (min^-1); MIWI and MILI are mouse PIWI proteins and EfPiwi is from a freshwater sponge; tags in brackets are library labels; higher = faster piRNA-guided slicing of the target
# Conditions: guide: piRNA #2 5'p-UUAGGUAACCCAGUAGAUCCAGAGGAAUUC; auxiliary factor: 500 nM mouse GTSF1
# Method: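 Cleave-'n-Seq: a library of target RNAs (target site embedded in constant flanks, ACAGCATTCCGCGTTAGTGATATCCG... 5' flank; DNA-blocked outside the site) at 0.1 nM was incubated with 1 nM active mouse MILI or MIWI piRISC (synthetic 5'-monophosphorylated piRNA guide) with or without 500 nM mouse GTSF1 at 33 °C for 1 min to 16 h. Uncleaved targets were sequenced and normalised to non-target controls, and the pooled three trials were fitted to a burst-and-steady-state model to give the pre-steady-state cleavage rate (min^-1; k3 is constrained to at most 1e-4). Sequence is the target site only; target names encode pairing extent (gX:gY) and contiguous / 1-mismatch / 2-mismatch / bulge geometry. Fits with R² ≤ 0 are excluded.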
row,Sequence,pre-steady-state target cleavage rate
1,CUUAACCUCUGGAUCUACGUGGGUUACCUAA,0.000871 ± 0.0095
2,CUUAAGGACUGGAUCUACUCGGUUAGCUAA,0.00432 ± 0.012
3,CUUAAGGAGACGAUCUACUGCGUUACGUAA,0.00199 ± 0.0033
4,CUUAAGGAGAGGAUCUACUCCGUUACCUAA,0.000186 ± 0.056
5,CUUAAGGAGAGGAACUACUGGGUUACCUUA,0.00068 ± 0.0095
6,CUUAAGGAGACCUACUACUCCCUUACCUAA,0.00023 ± 0.019
7,CUUAAGGUCUGGAUCUCACUGGGUUACCUAA,0.000112 ± 0.044
8,CUUAAGGAGACCAUCUACUGGGUUACCUAC [g2:g18:cont:t1C],0.00157 ± 0.0042
9,CUUAUCCUCUGGAUCUACUGGAGUUACCUAA,0.00314 ± 0.0048
10,CUUAAGGAGAGGAUCUACUCGGUUACGUAA,0.000751 ± 0.021
11,CUUAAGGAGACCUAGUACCUGGGUUACCUAA,0.00121 ± 0.0076
12,CUUAACCUGUGGAACUACUGGGUUACCUAA,0.177 ± 0.048
13,CUUAACCUCUGGAUCUACUGAGGUUACCUAA,0.00156 ± 0.0084
14,CUUAACCUCUGGAACUACUGGGUUAGCUAA,0.103 ± 0.016
15,CUUAAGGAGUGGAUUACUGGGUUACCUAA,0.00205 ± 0.007
16,CUUAAGGACUCGAUCUAGUGGGUUACCUAA,0.00313 ± 0.0036
17,CAAUUCCUCUGGAACUACUGGGUUACGUAA,0.517 ± 0.048
18,CUUAAGGAGACCAUCAUCUGGGUUACCUAA,0.00134 ± 0.0047
19,CAAUUCCUCUCGAUCUACAGGGUUACCUAA,0.546 ± 0.038

row,Sequence,pre-steady-state target cleavage rate
1,CUUAAGGAGACCAUCUACUGGGUUACCAAA,0.00207 ± 0.0035
2,CUUAAGGUCUGGAACUAGUGGGUUACCUAA,0.0577 ± 0.017
3,CUUAAGGAGACCAUCUACUAGGUUACCUAA,0.00234 ± 0.0046
4,CUUAAGGACUGGAUCUACUGGGUUAGGAUA [g6:g22:cont:t1A],0.000503 ± 0.029
5,CUUAAGGAGACGAUCUACUGGGUUAGCUAA,0.000305 ± 0.013
6,CUUAACCUCUGGAUCUACUUGGGUUACCUAA,0.000903 ± 0.0073
7,CUUAAGGAGACGAUCUUGAGGGUUACCUAA,0.00115 ± 0.0092
8,CUUAAGGACUGCAUCUACUGGCUUACCUAA,0.00289 ± 0.014
9,CUUAAGGAGACCAUCUACAGGGUUACCUAA,0.00269 ± 0.0043
10,CUUAAGGAGACCUACUACUGGGUUGACCUAA,0.00326 ± 0.0034
11,CUUAAGGAGACCUAGAUCUGGGUAUGCUAA,0.000168 ± 0.032
12,CUUAAGGAGACGAUCAACUGGGUUACCUAA,0.000784 ± 0.011
13,CUUAAGGAGACCUAGAUCUGGGUUAUCCUAA,0.00132 ± 0.0069
14,CUUAAGGAGACCUACUCCUGGGUUACCUAA,0.00206 ± 0.0039
15,CUUAAGGACUCGAUCUACUGGGUAACCUAA,0.00173 ± 0.02
16,CUUAAGCUCUGGAUCUACUGGGUAUGGAUA [g8:g24:cont:t1A],0.0011 ± 0.011
17,CUUAAGGAGACCUACUACUGGGUUACGAAA,0.00097 ± 0.0074
18,CUUAAGGAGACGAUCAUACUGGGUUACCUAA,0.000571 ± 0.016
19,CUAUUCCUCUGGAUCUACUUGGUUACCUAA,0.00335 ± 0.0054

# Some values from the entries so far:
# In pre-steady-state target cleavage rate, CUUAAGGAGACCUAGAUCUGGGUAUGCUAA is entered as 0.000168 ± 0.032
# In pre-steady-state target cleavage rate, CUUAAGGAGACGAUCUUGAGGGUUACCUAA is entered as 0.00115 ± 0.0092
